Test results published in patent US6080791A, “Method of treating a viral condition by inhibiting membrane fusion” (priority 1992, dated 2000).

Key:
hemoglobin = assay: Hb control (quenching of OD570 of hemoglobin); set-up: species or system human

Row | Structure (SMILES) | effect on the pH of the reactions (pH control; 1 mM) | also measured
1 | Cc1c(O)ccc(O)c1C [Compound 99, 2,3-dimethylhydroquinone] | none | 
2 | O=C1C=CC(=O)c2c(O)cccc21 [Compound 119, 5-hydroxy-1,4-naphthoquinone] |  | effect on the pH of the reactions (pH control): none
3 | O=C1C=C(Br)C(=O)c2ccccc21 [Compound 135, 2-bromo-1,4-naphthoquinone] | none | 
4 | O=C1C=CC(=O)c2ccccc21 [Compound 90, 1,4-naphthoquinone] | none | 
5 | O=C(O)C1C=CCC2C(=O)C=CC(=O)C12 (stereo not drawn) [Compound 91, 5,8-dioxo-1,4,4A,5,8,8A-hexahydro-1-naphthalene carboxylic acid] | none | 
6 | O=C(O)[C@@H]1[C@H](C(=O)O)[C@@H]2C=C[C@H]1C2 [Compound 89, cis-5-norbornene-endo-2,3-dicarboxylic acid] | none | 
7 | CC(C)(C)c1cc(O)ccc1O [Compound 117, tert-butylhydroquinone] | none | 
8 | Cl.Nc1ccc(O)c2ccccc12 [Compound 121, 4-amino-1-naphthol hydrochloride] | none | 
9 | O=C1C=CC(=O)c2cc3ccccc3cc21 [Compound 114, 1,4-anthraquinone] |  | effect on the pH of the reactions (pH control; 0.1 mM): none
10 | COc1ccc(O)c2ccccc12 [Compound 107, 4-methoxy-1-naphthol] |  | loss of OD due to redox activity (hemoglobin): complete loss of OD due to redox activity
11 | CC1=CC(=O)CC(C)(C)C1=O [Compound 84, 2,6,6-trimethyl-2-cyclohexene-1,4-dione] | none | 
12 | Oc1ccc(Cl)c2ccccc12 [Compound 101, 4-chloro-1-naphthol] |  | loss of OD due to redox activity (hemoglobin): complete loss of OD due to redox activity
13 | Oc1ccc2ccccc2c1O [Compound 124, 1,2-dihydroxynaphthalene] |  | effect on the pH of the reactions (pH control; 0.1 mM): none
14 | Cc1cc(O)c(C)cc1O [Compound 116, 2,5-dimethylhydroquinone] | none | 
15 | CC1=CC(=O)c2ccccc2C1=O [Compound 118, 2-methyl-1,4-naphthoquinone] | none | 

Where two headings read alike, the source gives them in different places.
